# Where a chain is given by its changes, count along the chain named. This is one part of the list.
# How the values were obtained:
# Details in all cases: yeast three-hybrid, YBZ-1, SC-Leu-His + 0.5 mM 3-AT, 4 days
# [1] = biological target: T1, PUM1 PUF domain R4-ANL N971A + H972N + Q975L (Homo sapiens) (UniProt Q14671)
# T1 sequence: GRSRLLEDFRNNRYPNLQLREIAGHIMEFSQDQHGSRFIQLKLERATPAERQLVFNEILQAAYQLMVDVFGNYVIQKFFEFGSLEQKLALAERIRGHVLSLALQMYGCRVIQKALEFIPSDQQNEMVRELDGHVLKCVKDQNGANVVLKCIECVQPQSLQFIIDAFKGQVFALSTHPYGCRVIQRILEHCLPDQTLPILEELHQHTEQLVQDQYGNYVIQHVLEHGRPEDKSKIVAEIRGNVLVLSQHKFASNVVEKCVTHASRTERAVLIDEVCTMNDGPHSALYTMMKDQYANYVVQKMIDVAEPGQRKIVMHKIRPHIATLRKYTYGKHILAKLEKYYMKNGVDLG
# [2] = biological target: T2, PUM1 PUF domain R4-ANT N971A + H972N + Q975T (Homo sapiens) (UniProt Q14671)
# T2 sequence: T1 sequence with L148T
# [3] = biological target: T3, PUM1 PUF domain R4-FGR N971F + H972G + Q975R (Homo sapiens) (UniProt Q14671)
# T3 sequence: T1 sequence with A144F, N145G, L148R
# [4] = biological target: T4, PUM1 PUF domain R4-FNC N971F + H972N + Q975C (Homo sapiens) (UniProt Q14671)
# T4 sequence: T1 sequence with A144F, L148C
# [5] = biological target: T5, PUM1 PUF domain R4-GNV N971G + H972N + Q975V (Homo sapiens) (UniProt Q14671)
# T5 sequence: T1 sequence with A144G, L148V
# [6] = biological target: T6, PUM1 PUF domain R4-GSQ N971G + H972S (Homo sapiens) (UniProt Q14671)
# T6 sequence: T1 sequence with A144G, N145S, L148Q
# [7] = biological target: T7, PUM1 PUF domain R4-LNA N971L + H972N + Q975A (Homo sapiens) (UniProt Q14671)
# T7 sequence: T1 sequence with A144L, L148A
# [8] = biological target: T8, PUM1 PUF domain R4-NNG H972N + Q975G (Homo sapiens) (UniProt Q14671)
# T8 sequence: T1 sequence with A144N, L148G
# [9] = biological target: T9, PUM1 PUF domain R4-PHK N971P + Q975K (Homo sapiens) (UniProt Q14671)
# T9 sequence: T1 sequence with A144P, N145H, L148K
# [10] = biological target: T10, PUM1 PUF domain R4-PYE N971P + H972Y + Q975E (Homo sapiens) (UniProt Q14671)
# T10 sequence: T1 sequence with A144P, N145Y, L148E
# [11] = biological target: T11, PUM1 PUF domain R4-PYL N971P + H972Y + Q975L (Homo sapiens) (UniProt Q14671)
# T11 sequence: T1 sequence with A144P, N145Y
# [12] = biological target: T12, PUM1 PUF domain R4-PYR N971P + H972Y + Q975R (Homo sapiens) (UniProt Q14671)
# T12 sequence: T1 sequence with A144P, N145Y, L148R
# [13] = biological target: T13, PUM1 PUF domain R4-SNR N971S + H972N + Q975R (Homo sapiens) (UniProt Q14671)
# T13 sequence: T1 sequence with A144S, L148R
# [14] = biological target: T14, PUM1 PUF domain R4-VCA N971V + H972C + Q975A (Homo sapiens) (UniProt Q14671)
# T14 sequence: T1 sequence with A144V, N145C, L148A
# [15] = biological target: T15, PUM1 PUF domain R4-VNA N971V + H972N + Q975A (Homo sapiens) (UniProt Q14671)
# T15 sequence: T1 sequence with A144V, L148A
# [16] = biological target: T16, PUM1 PUF domain R4-VNS N971V + H972N + Q975S (Homo sapiens) (UniProt Q14671)
# T16 sequence: T1 sequence with A144V, L148S
# [17] = biological target: T17, PUM1 PUF domain R4-VNT N971V + H972N + Q975T (Homo sapiens) (UniProt Q14671)
# T17 sequence: T1 sequence with A144V, L148T
# [18] = biological target: T18, PUM1 PUF domain R4-VNV N971V + H972N + Q975V (Homo sapiens) (UniProt Q14671)
# T18 sequence: T1 sequence with A144V, L148V
# [19] = biological target: T19, PUM1 PUF domain R5-CKR R1008K + Q1011R (Homo sapiens) (UniProt Q14671)
# T19 sequence: T1 sequence with A144N, N145H, L148Q, R181K, Q184R
# [20] = biological target: T20, PUM1 PUF domain R5-FHI C1007F + R1008H + Q1011I (Homo sapiens) (UniProt Q14671)
# T20 sequence: T1 sequence with A144N, N145H, L148Q, C180F, R181H, Q184I
sequence,measurement,setting,value
GGCUAGAACUAGUGGAUCCCCCGGCGCCCGGCGGCUCGAGCCCGGGUAAGUGUAAAUAGUCUGCAUGCCGCCGGGCGCCAUGCCUGCAGGUCGACUCUAGAAAACAUG,binding signal (log2 enrichment (interaction score)),[1],-1.18
same,binding signal (log2 enrichment (interaction score)),[2],-1.11
same,binding signal (log2 enrichment (interaction score)),[3],-2.39
same,binding signal (log2 enrichment (interaction score)),[4],-1.49
same,binding signal (log2 enrichment (interaction score)),[5],-2.49
same,binding signal (log2 enrichment (interaction score)),[6],-1.15
same,binding signal (log2 enrichment (interaction score)),[7],-3.1
same,binding signal (log2 enrichment (interaction score)),[8],-1.79
same,binding signal (log2 enrichment (interaction score)),[9],-2.5
same,binding signal (log2 enrichment (interaction score)),[10],-3.13
same,binding signal (log2 enrichment (interaction score)),[11],-2.19
same,binding signal (log2 enrichment (interaction score)),[12],-1.23
same,binding signal (log2 enrichment (interaction score)),[13],-2
same,binding signal (log2 enrichment (interaction score)),[14],-4.73
same,binding signal (log2 enrichment (interaction score)),[15],-1.66
same,binding signal (log2 enrichment (interaction score)),[16],-1.28
same,binding signal (log2 enrichment (interaction score)),[17],-2.67
same,binding signal (log2 enrichment (interaction score)),[18],-2.46
same,binding signal (log2 enrichment (interaction score)),[19],1.16
same,binding signal (log2 enrichment (interaction score)),[20],1.57

# Some of the entries above, set out differently.
sequence	measurement	setting	value
GGCUAGAACUAGUGGAUCCCCCGGCGCCCGGCGGCUCGAGCCCGGGUAAGUGUAAAUAGUCUGCAUGCCGCCGGGCGCCAUGCCUGCAGGUCGACUCUAGAAAACAUG	binding signal (log2 enrichment (interaction score))	[17]	-2.67
same	binding signal (log2 enrichment (interaction score))	[18]	-2.46
